Results are given in words; binding and its absence hold for the method and conditions named. Binding seen in cells or lysates may run through a third protein. Some results given as binding are weak or reduced against the parent protein; the word gives no strength. For some of these results: Tags and fused reporters may be left off the sequences shown.

Chains of the proteins cited; added tags and fusions are not shown.
UniProt P15927: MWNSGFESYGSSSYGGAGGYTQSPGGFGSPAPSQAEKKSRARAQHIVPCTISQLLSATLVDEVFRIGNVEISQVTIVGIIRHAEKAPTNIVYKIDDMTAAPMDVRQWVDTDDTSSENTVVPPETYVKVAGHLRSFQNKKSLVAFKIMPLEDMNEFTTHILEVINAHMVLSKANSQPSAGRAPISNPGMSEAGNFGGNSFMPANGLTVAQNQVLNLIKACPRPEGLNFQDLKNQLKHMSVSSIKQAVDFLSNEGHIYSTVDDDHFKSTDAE
UniProt P50533: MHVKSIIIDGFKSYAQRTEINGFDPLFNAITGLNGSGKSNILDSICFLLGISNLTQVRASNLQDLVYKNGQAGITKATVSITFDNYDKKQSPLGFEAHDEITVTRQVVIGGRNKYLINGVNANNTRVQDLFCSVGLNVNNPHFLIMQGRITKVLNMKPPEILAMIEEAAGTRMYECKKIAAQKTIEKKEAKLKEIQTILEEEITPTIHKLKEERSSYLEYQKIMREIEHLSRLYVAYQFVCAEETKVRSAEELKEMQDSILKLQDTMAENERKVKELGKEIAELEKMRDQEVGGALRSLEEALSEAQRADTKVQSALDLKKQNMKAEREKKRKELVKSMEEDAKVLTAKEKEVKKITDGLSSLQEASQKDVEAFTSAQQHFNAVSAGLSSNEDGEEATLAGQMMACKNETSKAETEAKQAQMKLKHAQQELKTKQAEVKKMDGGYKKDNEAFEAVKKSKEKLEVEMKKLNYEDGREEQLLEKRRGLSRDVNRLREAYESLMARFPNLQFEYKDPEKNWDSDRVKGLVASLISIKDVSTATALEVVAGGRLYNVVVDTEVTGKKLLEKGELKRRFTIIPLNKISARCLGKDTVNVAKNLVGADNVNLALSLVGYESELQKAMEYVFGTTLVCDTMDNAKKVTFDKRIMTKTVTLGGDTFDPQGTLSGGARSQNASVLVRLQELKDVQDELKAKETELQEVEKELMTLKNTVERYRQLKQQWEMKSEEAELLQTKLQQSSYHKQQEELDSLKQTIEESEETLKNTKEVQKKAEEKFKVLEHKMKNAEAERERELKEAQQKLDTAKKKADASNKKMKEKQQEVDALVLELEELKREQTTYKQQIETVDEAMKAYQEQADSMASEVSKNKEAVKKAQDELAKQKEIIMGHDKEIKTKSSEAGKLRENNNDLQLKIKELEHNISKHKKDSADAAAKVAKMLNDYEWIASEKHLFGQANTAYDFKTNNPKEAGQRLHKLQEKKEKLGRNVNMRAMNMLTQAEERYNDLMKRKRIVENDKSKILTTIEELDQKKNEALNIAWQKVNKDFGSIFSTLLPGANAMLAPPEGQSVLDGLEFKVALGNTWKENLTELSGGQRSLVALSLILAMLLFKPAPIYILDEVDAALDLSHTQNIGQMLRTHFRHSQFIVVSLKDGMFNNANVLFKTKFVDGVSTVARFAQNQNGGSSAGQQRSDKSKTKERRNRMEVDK
UniProt P70032: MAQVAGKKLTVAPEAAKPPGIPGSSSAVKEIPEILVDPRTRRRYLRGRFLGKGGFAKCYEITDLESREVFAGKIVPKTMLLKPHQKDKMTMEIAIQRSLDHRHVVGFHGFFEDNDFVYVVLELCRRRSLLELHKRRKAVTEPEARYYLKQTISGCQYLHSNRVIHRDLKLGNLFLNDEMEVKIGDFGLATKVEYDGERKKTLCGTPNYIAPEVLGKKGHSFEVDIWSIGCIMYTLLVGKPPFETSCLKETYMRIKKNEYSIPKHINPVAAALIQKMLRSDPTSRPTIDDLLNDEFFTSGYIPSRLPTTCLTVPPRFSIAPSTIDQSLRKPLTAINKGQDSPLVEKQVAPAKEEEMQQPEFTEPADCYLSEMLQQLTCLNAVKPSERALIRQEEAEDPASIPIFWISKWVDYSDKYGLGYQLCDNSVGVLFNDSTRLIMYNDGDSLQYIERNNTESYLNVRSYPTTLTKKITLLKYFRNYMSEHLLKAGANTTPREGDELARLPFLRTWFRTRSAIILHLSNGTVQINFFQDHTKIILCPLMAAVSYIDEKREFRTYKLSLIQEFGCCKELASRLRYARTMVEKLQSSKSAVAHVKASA
UniProt Q6NTJ3: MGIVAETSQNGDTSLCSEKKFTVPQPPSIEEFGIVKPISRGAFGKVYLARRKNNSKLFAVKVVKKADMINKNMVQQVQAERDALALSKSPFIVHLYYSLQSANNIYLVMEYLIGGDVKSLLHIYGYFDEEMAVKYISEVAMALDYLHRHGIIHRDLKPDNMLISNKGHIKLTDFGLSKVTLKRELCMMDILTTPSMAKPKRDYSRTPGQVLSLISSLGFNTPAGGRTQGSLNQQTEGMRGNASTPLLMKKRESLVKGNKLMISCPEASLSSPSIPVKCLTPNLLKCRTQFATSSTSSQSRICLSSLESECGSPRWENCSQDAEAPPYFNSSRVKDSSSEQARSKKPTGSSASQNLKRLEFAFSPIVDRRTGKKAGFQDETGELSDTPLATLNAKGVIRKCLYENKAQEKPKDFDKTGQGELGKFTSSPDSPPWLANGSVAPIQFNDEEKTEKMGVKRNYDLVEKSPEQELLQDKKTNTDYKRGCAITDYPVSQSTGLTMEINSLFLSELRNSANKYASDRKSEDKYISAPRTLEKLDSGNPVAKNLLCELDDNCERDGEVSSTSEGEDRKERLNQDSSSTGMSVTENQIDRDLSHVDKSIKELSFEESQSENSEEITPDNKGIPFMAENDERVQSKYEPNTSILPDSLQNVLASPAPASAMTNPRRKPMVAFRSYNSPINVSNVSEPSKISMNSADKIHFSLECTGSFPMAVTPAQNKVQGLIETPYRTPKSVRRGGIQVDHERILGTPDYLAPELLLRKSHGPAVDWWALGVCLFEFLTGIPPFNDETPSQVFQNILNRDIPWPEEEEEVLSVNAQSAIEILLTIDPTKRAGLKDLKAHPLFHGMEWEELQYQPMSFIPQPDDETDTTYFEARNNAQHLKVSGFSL

These results are taken from PMC5805732.

One assay addresses T1, MBP-B55β (Xenopus) (UniProt A1L3L9).
T1 sequence: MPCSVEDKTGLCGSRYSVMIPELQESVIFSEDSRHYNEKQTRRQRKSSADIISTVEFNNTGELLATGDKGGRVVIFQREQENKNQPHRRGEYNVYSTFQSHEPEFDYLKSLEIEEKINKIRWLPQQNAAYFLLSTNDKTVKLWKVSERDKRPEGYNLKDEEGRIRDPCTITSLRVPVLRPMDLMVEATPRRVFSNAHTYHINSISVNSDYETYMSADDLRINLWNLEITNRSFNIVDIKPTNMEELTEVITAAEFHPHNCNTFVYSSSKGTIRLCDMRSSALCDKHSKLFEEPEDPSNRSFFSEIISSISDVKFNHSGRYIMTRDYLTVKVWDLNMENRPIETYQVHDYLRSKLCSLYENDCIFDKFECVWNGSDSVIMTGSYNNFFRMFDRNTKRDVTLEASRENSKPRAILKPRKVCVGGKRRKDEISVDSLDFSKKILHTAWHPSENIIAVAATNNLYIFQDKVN
The assay is described as follows: pull-down; about 10 μg MBP-B55 on amylose beads (20 μl) incubated in interphase Xenopus egg extracts (40 μl), 30 min, room temperature; immunoblotting; control: amylose beads not conjugated with proteins; only the target purified. On the technique in general: In western blotting, separated proteins are transferred to a membrane and probed.

The target in another assay is T2, HA-B55α (UniProt P63151).
T2 sequence: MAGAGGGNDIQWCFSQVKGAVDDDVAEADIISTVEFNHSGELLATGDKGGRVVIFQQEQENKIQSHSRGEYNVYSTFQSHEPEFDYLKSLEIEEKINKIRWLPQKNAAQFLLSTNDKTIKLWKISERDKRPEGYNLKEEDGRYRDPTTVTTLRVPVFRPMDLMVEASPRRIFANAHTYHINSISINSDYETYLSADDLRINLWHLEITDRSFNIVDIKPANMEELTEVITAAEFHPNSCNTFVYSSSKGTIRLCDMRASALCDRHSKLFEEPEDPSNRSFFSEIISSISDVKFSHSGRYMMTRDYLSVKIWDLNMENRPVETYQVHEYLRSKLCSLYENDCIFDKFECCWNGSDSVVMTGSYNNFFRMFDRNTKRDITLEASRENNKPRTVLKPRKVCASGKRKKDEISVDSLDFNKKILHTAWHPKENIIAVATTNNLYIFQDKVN
As to the kind of experiment: co-IP; HA IP from lysates of HeLa cells expressing HA-B55α, treated with or without HU (1 mM, 24 h); immunoblotting for B55α and RPA2; control IP with blank beads.

Assay [1] has as its target T3, B55α (endogenous, human cells) (human (endogenous in HeLa)) (UniProt P63151).
T3 sequence: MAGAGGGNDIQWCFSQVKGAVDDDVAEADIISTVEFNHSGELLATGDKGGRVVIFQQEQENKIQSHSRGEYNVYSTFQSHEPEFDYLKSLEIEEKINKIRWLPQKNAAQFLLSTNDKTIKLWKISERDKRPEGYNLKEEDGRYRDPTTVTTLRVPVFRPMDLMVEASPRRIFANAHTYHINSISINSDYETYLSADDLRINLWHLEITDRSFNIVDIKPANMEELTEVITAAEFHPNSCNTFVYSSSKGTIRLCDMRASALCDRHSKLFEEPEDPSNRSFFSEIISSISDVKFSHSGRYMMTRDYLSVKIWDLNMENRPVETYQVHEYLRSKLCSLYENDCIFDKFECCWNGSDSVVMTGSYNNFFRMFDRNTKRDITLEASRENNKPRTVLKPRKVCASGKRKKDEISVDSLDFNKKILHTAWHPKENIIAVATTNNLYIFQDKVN
As to the kind of experiment: co-IP; endogenous proteins in HeLa cell lysates; primary antibody (RPA2 or B55α) on anti-mouse or anti-rabbit magnetic beads, 1 h; immunoblotting; control IP with blank beads; cells also pre-treated with HU (1 mM, 24 h) or mock-treated.

Assay [2] addresses RPA2 (human (endogenous in HeLa)) (UniProt P15927). The assay is described as above.

Regarding “Condensin subunit Smc2 (from UniProt P50533 1-1203)”, the binding entry with MBP-B55β (Xenopus) is reported as “binds”.
Still for that read-out and setting: the entry for “mitotic kinase Plk1 (from UniProt P70032 1-598) (enzyme)” is “binds”; for “mitotic kinase Mastl (from UniProt Q6NTJ3 1-887) (enzyme)” it is “binds”.
In the case of RPA2 (from UniProt P15927 1-270), the binding result (with HA-B55α; in assay [1]) was “binds” each time.

B1: DNA replication protein Mcm2 (protein, UniProt P55861 1-886)
chain: MADSSESFNIATSPRAGSRRDALTSSPGRDLPPFEDESEGMFGDGVVPEEEEDGEELIGDAMERDYRPISELDRYEVEGLDDEEDVEDLTASQREAAEQSMRMRDREMGRELGRMRRGLLYDSDEEEEDRPARKRRMAERAAEGAPEEDEEMIESIENLEDMKGHTVREWVSMAATRLEIYHRFKNFLRTHVDEHGHNVFKEKISDMCKENKESLPVNYEDLAAREHVLAYFLPEAPAEMLKIFDEAAKEVVLVMYPKYDRIAREIHVRISHLPLVEELRSLRQLHLNQLIRTSGVVTCCTGVLPQLSMVKYNCNKCNFILGPFFQSQNQEVRPGSCPECQSFGPFEINMEETVYQNYQRITIQESPGKVAAGRLPRSKDAILLADLVDSCKPGDEIELTGIYHNNYDGSLNTANGFPVFATVILANHITKKDDKVAVGELTDEDVKAIVALSKDERIGERIFASIAPSIYGHEDIKRGLALALFGGEAKNPGGKHKVRGDINVLLCGDPGTAKSQFLKYVEKVASRAVFTTGQGASAVGLTAYVQRHPVTKEWTLEAGALVLADRGVCLIDEFDKMNDQDRTSIHEAMEQQSISISKAGIVTSLQARCTVIAASNPIGGRYDPSLTFSENVDLTEPIVSRFDILCVVRDTVDPVQDEMLARFVVSSHIKHHPSSKDIANGDAAEFALPNTFGVEALPQEVLKKYIMYAKEKIRPKLNQMDQDKVAKMYSDLRKESMATGSIPITVRHIESMIRMAEAHARMHLRDYVVEDDVNMAIRVMLESFIDTQKFSVMRSMRKTFARYLAFRRDNNELLLFVLKQLIAEQVTYQRNRYGAQQDTIEVPEKDLVDKARQINIHNLSAFYDSDLFKMNKFTHDVKKKLIIQQF
With B1, the binding entry in the assay with MBP-B55β (Xenopus) is “binds”.

B2: B55α (endogenous, human cells) (protein, UniProt P63151 1-447)
chain: MAGAGGGNDIQWCFSQVKGAVDDDVAEADIISTVEFNHSGELLATGDKGGRVVIFQQEQENKIQSHSRGEYNVYSTFQSHEPEFDYLKSLEIEEKINKIRWLPQKNAAQFLLSTNDKTIKLWKISERDKRPEGYNLKEEDGRYRDPTTVTTLRVPVFRPMDLMVEASPRRIFANAHTYHINSISINSDYETYLSADDLRINLWHLEITDRSFNIVDIKPANMEELTEVITAAEFHPNSCNTFVYSSSKGTIRLCDMRASALCDRHSKLFEEPEDPSNRSFFSEIISSISDVKFSHSGRYMMTRDYLSVKIWDLNMENRPVETYQVHEYLRSKLCSLYENDCIFDKFECCWNGSDSVVMTGSYNNFFRMFDRNTKRDITLEASRENNKPRTVLKPRKVCASGKRKKDEISVDSLDFNKKILHTAWHPKENIIAVATTNNLYIFQDKVN
Regarding B2, the binding result in assay [2] is on record as “binds”.
